Data on 63 compounds can be found in publication PMC12670160, “A drug-repurposing screen of FDA- and EMA-approved drugs identifies two NF-κB inhibitors active against eumycetoma” (Journal of Antimicrobial Chemotherapy, 2025).

SMILES strings stand for the structures. Where a name gives a salt, the structure may show the parent alone. The campaign covered roughly 5,300 compounds. About 130 (2.5%) showed an effect of 50% or more. The list shows a part of the results.

For the test, the system named is M. mycetomatis strain mm55. The settings on record: primary screen, metabolic activity vs growth control; 96 h, 2 µM; inhibitor.
Consider `COc1cccc(CN(C(=O)CC(C)(C)C)[C@H]2C[C@@H](C(=O)N3CCNCC3)N(Cc3ccc4c(c3)OCO4)C2)c1` [ONC0003277, cur61414], for which the “% viability” value turned out to be 81.81%.
For `Nc1cc(F)ccc1NC(=O)/C=C/c1cnn(C/C=C/c2ccccc2)c1` [ONC0005178, rgfp966] the value was 94.52%; for `Nc1nc(NC2CC2)c2ncn([C@H]3C=C[C@@H](CO)C3)c2n1` [ONC0000483, abacavir sulfate], 70.44%.
For `CSc1ccc(OCc2ncc([N+](=O)[O-])n2C)cc1` [ONC0003366, fexinidazole] the value was 58.02%; for `C[N+](C)(C)CCOC(=O)CCC(=O)OCC[N+](C)(C)C` [ONC0002196, succinylcholinechloride], 99.85%.
Consider `CC/C(=C(/c1ccc(/C=C/C(=O)O)cc1)c1ccc2[nH]ncc2c1)c1ccc(F)cc1Cl` [ONC0001219, brilanestrant], for which the “% viability” value is listed as 87.31%.
Turning to `O=C(Nc1cnccc1Cl)N1CCN(Cc2ccc3c(c2)OC(F)(F)O3)CC1` [ONC0001299, jnj42165279], the “% viability” value amounted to 60.28%.
Take `COc1cc(C(C)=O)ccc1O` [ONC0004664, apocynin acetovanillone]: the “% viability” value is 85.85%.
Take `Cc1ccsc1/C=C/C1=NCCCN1C` [ONC0002322, morantel citrate]: the “% viability” value is 89.21%.
Turning to `CCCn1c(=O)[nH]c2nc(-c3ccc(S(=O)(=O)O)cc3)[nH]c2c1=O` [ONC0002649, psb1115], the “% viability” value came to 72.06%.
For `CO[C@H]1CC[C@H](N(c2cc(C3=CCCCC3)sc2C(=O)O)C(=O)[C@H]2CC[C@H](C)CC2)CC1` [ONC0000943, vch916] the value was 78.62%; for `Cc1ccc(S(=O)(=O)NC(=O)NN2CCCCCC2)cc1` [ONC0000684, tolazamide], 114.3%.
As to `COc1cccc(OC)c1C(=O)N[C@@H]1C(=O)N2[C@@H]1SC(C)(C)[C@@H]2C(=O)O` [ONC0000519, methicillin sodium], the “% viability” value turned out to be 70.35%.
For `Cn1cccc1/C=C1\C(=O)NC(=O)c2ccccc21` [ONC0001666, byk204165] the value was 98.84%; for `COc1cc2c(CCNC(C)=O)c[nH]c2cc1Cl` [ONC0001544, 6chloromelatonin], 92.34%; for `O=C(c1cc2ccccc2o1)N1CCN(Cc2ccccc2)CC1` [ONC0002374, befuraline], 64.34%.
In the case of `C[C@]12CC[C@@H]3c4ccc(OS(=O)(=O)O)cc4CC[C@H]3[C@@H]1CCC2=O` [ONC0003955, estropipate], the “% viability” value amounted to 73.24%.
Then `Cc1ncc(Cl)cc1NCc1ccc(C(=O)N[C@@H](CC2CCCC2)C(=O)NC2CC2)s1` [ONC0001132, gsk 2830371], with 53.2%.
Then `O=C(O)c1ccccc1Nc1ccc(CCc2ccc(Cl)c(Cl)c2)cc1` [ONC0005393, pd118057], with 109.5%; and `C=CC(C)(C)c1cc(/C=C/C(=O)c2ccc(O)cc2)c(OC)cc1O` [ONC0003443, licochalcone a], with 81.44%.
For `CCCCCCCCCCCCc1ccc(S(=O)(=O)Nc2nncs2)cc1` [ONC0000344, pht427] the value was 87.97%.
`OC(CCCN1CCCCC1)(c1ccccc1)c1ccccc1` [ONC0003777, diphenidol]: the “% viability” value is given as 100.5%.
For `CCN(CC)CCOC(=O)C(c1ccccc1)c1ccccc1` [ONC0003163, adiphenine hydrochloride] the value was 80.17%; for `CC1c2ccccc2CN1CC1=NCCN1` (stereo not drawn) [ONC0000423, brl44408], 59.3%.
Then `C[C@H]1[C@H](C)CC[C@]2(C(=O)O)CC[C@]3(C)C(=CC[C@@H]4[C@@]5(C)C[C@@H](O)[C@H](O)[C@@](C)(CO)[C@@H]5CC[C@]43C)[C@H]12` [ONC0003267, asiatic acid], with 63.99%; and `c1ccc(Oc2cccnc2)cc1` [ONC0002752, 3phenoxypyridine], with 89.97%.
Then `CCOC(=O)c1ccc(N)cc1` [ONC0003279, benzocaine], with 69.74%; and `NCCc1c[nH]c2ccc(C(N)=O)cc12` [ONC0000084, 5carboxamidotryptamine], with 55.69%.
On to `CN1CCN(c2c(F)cc3c(=O)c(C(=O)O)cn4c3c2OCN4C)CC1` [ONC0005542, marbofloxacin], for which the “% viability” value is 102.2%.
For `N=C(N)NCCCC(NC(=O)C1CCCN1C(=O)C1CSSCCC(=O)NC(Cc2ccc(O)cc2)C(=O)NC(Cc2ccccc2)C(=O)NC(CCC(N)=O)C(=O)NC(CC(N)=O)C(=O)N1)C(=O)NCC(N)=O` (stereo not drawn) [ONC0002256, desmopressin acetate] the value was 64.94%; for `CC(C)(C)CC(C)(C)c1ccc(O)c(Cc2ccc(Cl)cc2Cl)c1` [ONC0003090, clofoctol], 74.09%.
For `Cc1ccc([N+](=O)[O-])cc1S(=O)(=O)N(C)/N=C/c1cnc2ccc(Br)cn12` [ONC0004555, pik75] the value was 74.38%; for `Cc1noc(C)c1-c1ccc(-c2cc(C(N)=O)c(NC(N)=O)s2)c(O[C@H]2CCNC2)c1` [ONC0001292, azd3264], 69.25%.
Turning to `COc1cc(-c2ccc(=O)[nH]n2)ccc1OC(F)F` [ONC0001484, zardaverine], the “% viability” value is 83.38%.
`CC[N+](CC)(CC)CC(=O)Nc1c(C)cccc1C` [ONC0003058, qx314]: the “% viability” value is 58.74%.
Turning to `c1ccc(COCCCc2c[nH]cn2)cc1` [ONC0003620, proxyfan], the “% viability” value stood at 62.87%.
For `CC(C)(N)C(=O)N[C@H](COCc1ccccc1)C(=O)N1CCC2(CC1)CN(S(C)(=O)=O)c1ccccc12` [ONC0000930, ibutamoren mesylate] the value was 66.04%; for `CCN(c1cc(C#CCN2CCOCC2)cc(C(=O)NCc2c(C)cc(C)[nH]c2=O)c1C)[C@H]1CC[C@H](N(C)CCOC)CC1` [ONC0003950, epz011989], 86.7%.
For `CCCC(CCC)C(=O)OC1C[C@H]2CC[C@@H](C1)[N+]2(C)C` (stereo partly drawn) [ONC0005108, anisotropine methylbromide] the value was 92.02%; for `c1cc(OCCN2CCCCC2)cc(-c2n[nH]c3ccc(-c4nc[nH]n4)cc23)c1` [ONC0000900, cc401 hydrochloride], 73.26%.
In the case of `C#Cc1c[nH]c(=O)[nH]c1=O` [ONC0005377, eniluracil], the “% viability” value is recorded as 108%.
Then `CC(=O)CC/C=C(\C)CC/C=C(\C)CC/C=C(\C)CCC=C(C)C` [ONC0002238, teprenone], with 74.49%; and `CCCCNc1c(C(=O)OCC)c(C)nc2c1cnn2CC` [ONC0002541, tracazolate], with 76.49%; and `Nc1cccc(CNC(=O)c2ccc(Oc3ccc(OCc4cccc(F)c4)cc3)nc2)c1` [ONC0000110, ym244769], with 77.61%.
Take `NS(=O)(=O)c1cc(-c2nnn[nH]2)c(NCc2cccs2)cc1Cl` [ONC0003384, azosemide]: the “% viability” value is given as 89.97%.
For `COc1cc(NC(C)CCCN)c2ncccc2c1` (stereo not drawn) [ONC0000510, primaquine phosphate] the value was 72.54%.
For `CCCCC1(COC(=O)CCC(=O)O)C(=O)N(c2ccccc2)N(c2ccccc2)C1=O` [ONC0002226, suxibuzone] the value was 90.86%.
Then `CC(C)(Sc1ccncc1-c1ccc(C#N)c2ccccc12)C(=O)O` [ONC0001369, verinurad], with 69.39%; and `O=c1[nH]c(=O)n([C@H]2C[C@H](O)[C@@H](CO)O2)cc1Br` [ONC0001774, 5brdu], with 105.2%; and `C[S+]([O-])CCCCN=C=S` (stereo not drawn) [ONC0003262, sulforaphane], with 49.62%.
Consider `Cc1[nH]cnc1-c1ccc(Cl)cc1` [ONC0003829, lofemizole], for which the “% viability” value worked out at 66.9%.
Then `OC(CN1CCN(c2cccc(Cl)c2)CC1)C(c1ccccc1)c1ccccc1` (stereo not drawn) [ONC0000032, brl15572], with 128.1%; and `CCn1cc(C(=O)O)c(=O)c2ccc(-c3ccncc3)cc21` [ONC0003664, 1ethyl4oxo74pyridyl14dihydroquinoline3carboxylic acid], with 82.72%.
For `O=c1[nH]c2ccc(Cl)cc2c(N[C@@H]2CN3CCC2CC3)c1-c1nc2ccccc2[nH]1` [ONC0005051, chir124] the value was 85.58%; for `Cc1cnc(NC(=O)c2cc(Oc3cnc(C(=O)N(C)C)nc3)c3cc(C)oc3c2)cn1` [ONC0005563, pf04937319], 103.7%; for `CCCCCCCCCCCCCCCCOc1nc2ccc(C)cc2c(=O)o1` [ONC0003789, cetilistat], 70.18%.
Then `C/C(=C\c1ccc(C(=O)O)cc1)c1ccc2c(c1)C(C)(C)CCC2(C)C` [ONC0000103, ttnpb], with 107.5%; and `COc1ccc(-c2ccc3c(N4CCOCC4)nc(N4C[C@@H](C)O[C@@H](C)C4)nc3n2)cc1CO` [ONC0004694, ku0063794], with 105%; and `Oc1ccc2c(c1)CC[C@H](c1ccccc1)[C@@H]2c1ccc(OCCN2CCCC2)cc1` [ONC0000907, lasofoxifene tartrate], with 82.51%.
For the compound `Cc1cc(-c2ccccc2)nnc1NCCN1CCOCC1` [ONC0000640, minaprine hydrochloride], the “% viability” value is listed as 108.7%.
Regarding `CC(C)(Sc1ccc(CCN(CCCCC2CCCCC2)C(=O)NC2CCCCC2)cc1)C(=O)O` [ONC0003356, gw7647], the “% viability” value was found to be 78%.
Consider `CSc1ccc2c(c1)N(CCC1CCCCN1C)c1ccccc1S2` (stereo not drawn) [ONC0000545, thioridazine hydrochloride], for which the “% viability” value was 95.22%.
Then `CC(CN(C)C)CN1c2ccccc2Sc2ccc(C#N)cc21` (stereo not drawn) [ONC0005518, cyamemazine], with 108.9%.
